Data as given in article PMC11789580.
No constants are given. Whether binding was seen depends on the method and setting. Binding seen in cells or lysates may run through a third protein. Some entries that bind do so weakly or less than the wild type. Where a sequence is shown, tags or fusion partners need not be part of it.

T1: RPOTp-nLUC (Arabidopsis) (UniProt O24600)
T1 sequence: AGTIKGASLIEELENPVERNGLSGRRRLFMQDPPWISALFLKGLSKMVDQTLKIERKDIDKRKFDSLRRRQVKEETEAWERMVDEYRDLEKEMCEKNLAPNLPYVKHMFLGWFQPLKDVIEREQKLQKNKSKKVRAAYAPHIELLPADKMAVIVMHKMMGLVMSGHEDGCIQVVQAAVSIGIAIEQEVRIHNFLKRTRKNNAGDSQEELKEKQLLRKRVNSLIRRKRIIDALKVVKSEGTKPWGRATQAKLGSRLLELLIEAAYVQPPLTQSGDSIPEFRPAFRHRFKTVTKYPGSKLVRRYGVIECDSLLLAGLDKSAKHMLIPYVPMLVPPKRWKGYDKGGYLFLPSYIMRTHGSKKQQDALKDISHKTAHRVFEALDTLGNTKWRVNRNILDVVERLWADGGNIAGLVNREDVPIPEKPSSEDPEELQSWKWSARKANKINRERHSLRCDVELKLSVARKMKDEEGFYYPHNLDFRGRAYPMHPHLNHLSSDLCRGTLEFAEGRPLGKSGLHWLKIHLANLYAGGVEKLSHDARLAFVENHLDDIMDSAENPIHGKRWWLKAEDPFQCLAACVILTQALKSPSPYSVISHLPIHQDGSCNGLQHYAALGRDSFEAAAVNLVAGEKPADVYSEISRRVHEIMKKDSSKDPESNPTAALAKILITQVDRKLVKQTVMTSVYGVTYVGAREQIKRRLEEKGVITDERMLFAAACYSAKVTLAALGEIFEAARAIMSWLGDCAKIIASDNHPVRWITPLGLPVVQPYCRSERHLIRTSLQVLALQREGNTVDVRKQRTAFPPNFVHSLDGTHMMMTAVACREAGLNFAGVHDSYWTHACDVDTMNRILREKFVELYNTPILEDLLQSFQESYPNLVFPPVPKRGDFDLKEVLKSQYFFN

T2: MORF2-nLUC (Arabidopsis) (UniProt O22793)
T2 sequence: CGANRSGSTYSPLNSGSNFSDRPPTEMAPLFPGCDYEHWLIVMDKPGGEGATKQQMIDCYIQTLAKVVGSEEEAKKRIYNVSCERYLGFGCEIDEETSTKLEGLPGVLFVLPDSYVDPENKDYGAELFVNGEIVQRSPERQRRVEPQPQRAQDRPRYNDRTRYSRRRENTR

T3: RPOTp-FLAG (Arabidopsis) (UniProt O24600)
T3 sequence: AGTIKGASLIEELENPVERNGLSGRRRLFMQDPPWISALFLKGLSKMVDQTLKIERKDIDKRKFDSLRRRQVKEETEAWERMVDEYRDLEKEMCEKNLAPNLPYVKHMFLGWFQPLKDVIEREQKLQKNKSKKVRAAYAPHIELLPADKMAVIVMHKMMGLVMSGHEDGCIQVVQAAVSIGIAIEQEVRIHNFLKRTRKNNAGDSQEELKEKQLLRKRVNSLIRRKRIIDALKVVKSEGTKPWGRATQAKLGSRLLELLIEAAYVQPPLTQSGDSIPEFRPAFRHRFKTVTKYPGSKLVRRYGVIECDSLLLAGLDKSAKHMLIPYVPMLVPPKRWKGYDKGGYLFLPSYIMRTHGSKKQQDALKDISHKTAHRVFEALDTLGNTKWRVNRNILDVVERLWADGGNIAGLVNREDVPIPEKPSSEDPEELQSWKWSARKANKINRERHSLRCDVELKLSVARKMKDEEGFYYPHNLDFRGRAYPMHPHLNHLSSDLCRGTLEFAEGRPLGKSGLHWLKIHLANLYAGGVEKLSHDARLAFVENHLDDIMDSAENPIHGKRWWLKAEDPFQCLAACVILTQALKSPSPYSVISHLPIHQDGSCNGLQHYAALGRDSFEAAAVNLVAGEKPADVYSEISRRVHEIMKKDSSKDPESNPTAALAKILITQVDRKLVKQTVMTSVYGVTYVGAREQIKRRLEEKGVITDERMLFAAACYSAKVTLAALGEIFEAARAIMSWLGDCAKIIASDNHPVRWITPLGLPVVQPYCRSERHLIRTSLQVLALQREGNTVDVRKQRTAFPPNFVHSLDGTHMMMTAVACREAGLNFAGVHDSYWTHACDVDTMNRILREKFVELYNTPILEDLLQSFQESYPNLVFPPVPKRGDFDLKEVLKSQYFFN

T4: MORF2-FLAG (Arabidopsis) (UniProt O22793)
T4 sequence: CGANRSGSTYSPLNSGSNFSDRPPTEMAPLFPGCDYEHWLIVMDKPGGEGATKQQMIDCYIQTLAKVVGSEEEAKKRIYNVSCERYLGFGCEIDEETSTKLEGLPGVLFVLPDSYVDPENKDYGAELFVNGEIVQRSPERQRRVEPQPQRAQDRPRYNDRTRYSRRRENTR

T5: MORF2-cLUC (in Arabidopsis protoplasts) (Arabidopsis) (UniProt O22793)
T5 sequence: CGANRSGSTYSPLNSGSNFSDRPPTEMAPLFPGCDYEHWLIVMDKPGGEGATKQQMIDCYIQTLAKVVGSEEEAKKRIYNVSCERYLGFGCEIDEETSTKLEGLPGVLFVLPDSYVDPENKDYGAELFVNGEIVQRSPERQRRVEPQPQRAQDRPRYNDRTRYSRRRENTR


What was measured:
RPOTp-nLUC (Arabidopsis) = target: T1, RPOTp-nLUC (Arabidopsis); experiment: split reporter; firefly luciferase complementation imaging (LCI): nLUC and cLUC fusions co-infiltrated into 4-week-old Nicotiana benthamiana leaves, 3 days, 1 mM D-luciferin, CCD camera
MORF2-nLUC (Arabidopsis) = target: T2, MORF2-nLUC (Arabidopsis); experiment: split reporter; LCI of MORF2-nLUC with MORF-cLUC fusions in tobacco leaf epidermal cells, with RPOTp or with OZ1 (control) co-expressed / in the presence or absence of RPOTp
RPOTp-FLAG (Arabidopsis) = target: T3, RPOTp-FLAG (Arabidopsis); experiment: co-IP; RPOTp-FLAG and HA-tagged proteins co-infiltrated into Nicotiana benthamiana leaves; lysate on anti-FLAG M2 magnetic beads 2 h at 4 °C, eluted with 3xFLAG peptide; blots with anti-FLAG and anti-HA
MORF2-FLAG (Arabidopsis) = target: T4, MORF2-FLAG (Arabidopsis); experiment: co-IP; MORF2-FLAG with HA-tagged MORF proteins, with or without RPOTp-GFP; anti-FLAG magnetic beads; blots with anti-HA, anti-FLAG or anti-GFP
[1] = target: T5, MORF2-cLUC (in Arabidopsis protoplasts) (Arabidopsis); experiment: split reporter; firefly luciferase complementation with Renilla luciferase as internal control, one pUC19 plasmid (15 µg) in protoplasts of Col-0 and of the sca3-2 mutant, 16-20 h dark at 22 °C; ratio firefly/Renilla

Binder | binding (MORF2-nLUC (Arabidopsis)) | binding (MORF2-FLAG (Arabidopsis)) | other results
MORF8-cLUC (protein, UniProt Q9LKA5 57-395) GGLVSVKGLSTQATSSSLNDPNPNWSNRPPKETILLDGCDFEHWLVVVEPPQGEPTRDEIIDSYIKTLAQIVGSEDEARMKIYSVSTRCYYAFGALVSEDLSHKLKELSNVRWVLPDSYLDVRNKDYGGEPFIDGKAVPYDPKYHEEWIRNNARANERNRRNDRPRNNDRSRNFERRRENMAGGPPPQRPPMGGPPPPPHIGGSAPPPPHMGGSAPPPPHMGQNYGPPPPNNMGGPRHPPPYGAPPQNNMGGPRPPQNYGGTPPPNYGGAPPANNMGGAPPPNYGGGPPPQYGAVPPPQYGGAPPQNNNYQQQGSGMQQPQYQNNYPPNRDGSGNPYQG | binds | – | binding (RPOTp-nLUC (Arabidopsis)): binds
MORF8-nLUC (in Arabidopsis protoplasts) (protein, UniProt Q9LKA5 57-395) GGLVSVKGLSTQATSSSLNDPNPNWSNRPPKETILLDGCDFEHWLVVVEPPQGEPTRDEIIDSYIKTLAQIVGSEDEARMKIYSVSTRCYYAFGALVSEDLSHKLKELSNVRWVLPDSYLDVRNKDYGGEPFIDGKAVPYDPKYHEEWIRNNARANERNRRNDRPRNNDRSRNFERRRENMAGGPPPQRPPMGGPPPPPHIGGSAPPPPHMGGSAPPPPHMGQNYGPPPPNNMGGPRHPPPYGAPPQNNMGGPRPPQNYGGTPPPNYGGAPPANNMGGAPPPNYGGGPPPQYGAVPPPQYGGAPPQNNNYQQQGSGMQQPQYQNNYPPNRDGSGNPYQG | – | – | binding [1]: binds

Further lines, with some results ahead:

binding (MORF2-nLUC (Arabidopsis)) | binding (MORF2-FLAG (Arabidopsis)) | Binder | other results
– | binds | MORF8-HA (protein, UniProt Q9LKA5 57-395) GGLVSVKGLSTQATSSSLNDPNPNWSNRPPKETILLDGCDFEHWLVVVEPPQGEPTRDEIIDSYIKTLAQIVGSEDEARMKIYSVSTRCYYAFGALVSEDLSHKLKELSNVRWVLPDSYLDVRNKDYGGEPFIDGKAVPYDPKYHEEWIRNNARANERNRRNDRPRNNDRSRNFERRRENMAGGPPPQRPPMGGPPPPPHIGGSAPPPPHMGGSAPPPPHMGQNYGPPPPNNMGGPRHPPPYGAPPQNNMGGPRPPQNYGGTPPPNYGGAPPANNMGGAPPPNYGGGPPPQYGAVPPPQYGGAPPQNNNYQQQGSGMQQPQYQNNYPPNRDGSGNPYQG | binding (RPOTp-FLAG (Arabidopsis)): binds
binds | – | RPOTp (co-expressed as third protein in the LCI assay of MORF dimerization) (enzyme, UniProt O24600 96-993) AGTIKGASLIEELENPVERNGLSGRRRLFMQDPPWISALFLKGLSKMVDQTLKIERKDIDKRKFDSLRRRQVKEETEAWERMVDEYRDLEKEMCEKNLAPNLPYVKHMFLGWFQPLKDVIEREQKLQKNKSKKVRAAYAPHIELLPADKMAVIVMHKMMGLVMSGHEDGCIQVVQAAVSIGIAIEQEVRIHNFLKRTRKNNAGDSQEELKEKQLLRKRVNSLIRRKRIIDALKVVKSEGTKPWGRATQAKLGSRLLELLIEAAYVQPPLTQSGDSIPEFRPAFRHRFKTVTKYPGSKLVRRYGVIECDSLLLAGLDKSAKHMLIPYVPMLVPPKRWKGYDKGGYLFLPSYIMRTHGSKKQQDALKDISHKTAHRVFEALDTLGNTKWRVNRNILDVVERLWADGGNIAGLVNREDVPIPEKPSSEDPEELQSWKWSARKANKINRERHSLRCDVELKLSVARKMKDEEGFYYPHNLDFRGRAYPMHPHLNHLSSDLCRGTLEFAEGRPLGKSGLHWLKIHLANLYAGGVEKLSHDARLAFVENHLDDIMDSAENPIHGKRWWLKAEDPFQCLAACVILTQALKSPSPYSVISHLPIHQDGSCNGLQHYAALGRDSFEAAAVNLVAGEKPADVYSEISRRVHEIMKKDSSKDPESNPTAALAKILITQVDRKLVKQTVMTSVYGVTYVGAREQIKRRLEEKGVITDERMLFAAACYSAKVTLAALGEIFEAARAIMSWLGDCAKIIASDNHPVRWITPLGLPVVQPYCRSERHLIRTSLQVLALQREGNTVDVRKQRTAFPPNFVHSLDGTHMMMTAVACREAGLNFAGVHDSYWTHACDVDTMNRILREKFVELYNTPILEDLLQSFQESYPNLVFPPVPKRGDFDLKEVLKSQYFFN | –
– | binds | RPOTp-GFP (enzyme, UniProt O24600 96-993) AGTIKGASLIEELENPVERNGLSGRRRLFMQDPPWISALFLKGLSKMVDQTLKIERKDIDKRKFDSLRRRQVKEETEAWERMVDEYRDLEKEMCEKNLAPNLPYVKHMFLGWFQPLKDVIEREQKLQKNKSKKVRAAYAPHIELLPADKMAVIVMHKMMGLVMSGHEDGCIQVVQAAVSIGIAIEQEVRIHNFLKRTRKNNAGDSQEELKEKQLLRKRVNSLIRRKRIIDALKVVKSEGTKPWGRATQAKLGSRLLELLIEAAYVQPPLTQSGDSIPEFRPAFRHRFKTVTKYPGSKLVRRYGVIECDSLLLAGLDKSAKHMLIPYVPMLVPPKRWKGYDKGGYLFLPSYIMRTHGSKKQQDALKDISHKTAHRVFEALDTLGNTKWRVNRNILDVVERLWADGGNIAGLVNREDVPIPEKPSSEDPEELQSWKWSARKANKINRERHSLRCDVELKLSVARKMKDEEGFYYPHNLDFRGRAYPMHPHLNHLSSDLCRGTLEFAEGRPLGKSGLHWLKIHLANLYAGGVEKLSHDARLAFVENHLDDIMDSAENPIHGKRWWLKAEDPFQCLAACVILTQALKSPSPYSVISHLPIHQDGSCNGLQHYAALGRDSFEAAAVNLVAGEKPADVYSEISRRVHEIMKKDSSKDPESNPTAALAKILITQVDRKLVKQTVMTSVYGVTYVGAREQIKRRLEEKGVITDERMLFAAACYSAKVTLAALGEIFEAARAIMSWLGDCAKIIASDNHPVRWITPLGLPVVQPYCRSERHLIRTSLQVLALQREGNTVDVRKQRTAFPPNFVHSLDGTHMMMTAVACREAGLNFAGVHDSYWTHACDVDTMNRILREKFVELYNTPILEDLLQSFQESYPNLVFPPVPKRGDFDLKEVLKSQYFFN | –
